Results deposited as PubChem BioAssay AID504808 (Drosophila RNAi Screening Center, 2011)
Assay: 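Chromatin factors that keep E2F targets switched off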 (primary screen). Cell system: Drosophila S2 cells. Reagent: long dsRNA against Drosophila genes. Measured: 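Dual luciferase plate measurements; E2F-specific signal taken as firefly over Renilla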. Reading the numbers: E2F firefly: higher = more E2F reporter activity; Renilla normaliser: higher = more normaliser reporter signal. Rule for the call: 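Called active if the normalised E2F reporter went up by over 50%; the cutoff is arbitrary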.
The screen tested about 21,000 reagents; this is an unselected part of those that have a named target and a result. In the full data, 18 (0.084%) got an active call. 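Raw counts without plate normalisation, one of two replicates; the ratio scores behind the calls were not deposited.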 Entries without a mark were called inactive. A plus sign joins genes that one reagent is predicted to hit. Not given: the amount of reagent, the time to read-out.

dachs (GeneID 34179) [DRSC02072]: E2F firefly, rep 1 = 96560; Renilla normaliser, rep 1 = 3770
dachs (GeneID 34179) [DRSC02191]: E2F firefly, rep 1 = 1.58e5; Renilla normaliser, rep 1 = 5392
CG34231 (GeneID 5740811) [DRSC05323]: E2F firefly, rep 1 = 1.22e5; Renilla normaliser, rep 1 = 4732
CG14826 (GeneID 38791) [DRSC10197]: E2F firefly, rep 1 = 1.01e5; Renilla normaliser, rep 1 = 4200
CG33502 + CG32857 + CG32500 [DRSC20817]: E2F firefly, rep 1 = 81459; Renilla normaliser, rep 1 = 2824
CG33502 + CG32857 + CG32500 [DRSC21038]: E2F firefly, rep 1 = 1.37e5; Renilla normaliser, rep 1 = 7171
CG6567 + CG4565 [DRSC15599]: E2F firefly, rep 1 = 1.40e5; Renilla normaliser, rep 1 = 7109
CG2794 (GeneID 33233) [DRSC00534]: E2F firefly, rep 1 = 1.81e5; Renilla normaliser, rep 1 = 5949
BthD (GeneID 32317) [DRSC19395]: E2F firefly, rep 1 = 70471; Renilla normaliser, rep 1 = 4357
HERC2 (GeneID 33035) [DRSC20566]: E2F firefly, rep 1 = 1.34e5; Renilla normaliser, rep 1 = 6070
CG34196 (GeneID 5740437) [DRSC05704]: E2F firefly, rep 1 = 1.43e5; Renilla normaliser, rep 1 = 6604
CG16865 (GeneID 34788) [DRSC01904]: E2F firefly, rep 1 = 1.02e5; Renilla normaliser, rep 1 = 4441
CaMKII (GeneID 43828) [DRSC17214]: E2F firefly, rep 1 = 1906; Renilla normaliser, rep 1 = 908
EbpII (GeneID 326108) [DRSC04637]: E2F firefly, rep 1 = 82313; Renilla normaliser, rep 1 = 3732
GluRIID (GeneID 44483) [DRSC16723]: E2F firefly, rep 1 = 1.61e5; Renilla normaliser, rep 1 = 8284
Rab9Db + Rab9Fa [DRSC18445]: E2F firefly, rep 1 = 1.22e5; Renilla normaliser, rep 1 = 5424
CG14111 (GeneID 39497) [DRSC10114]: E2F firefly, rep 1 = 1.46e5; Renilla normaliser, rep 1 = 7164
CG6654 (GeneID 41831) [DRSC16084]: E2F firefly, rep 1 = 75154; Renilla normaliser, rep 1 = 3274
CG15170 (GeneID 35160) [DRSC02471]: E2F firefly, rep 1 = 1.09e5; Renilla normaliser, rep 1 = 4228
CG3776 (GeneID 37996) [DRSC04417]: E2F firefly, rep 1 = 1.00e5; Renilla normaliser, rep 1 = 4177
TORIP (GeneID 40158) [DRSC10104]: E2F firefly, rep 1 = 72111; Renilla normaliser, rep 1 = 3352
CG31815 (GeneID 318959) [DRSC01548]: E2F firefly, rep 1 = 1.37e5; Renilla normaliser, rep 1 = 5397
CG40486 (GeneID 3355162) [DRSC20619]: E2F firefly, rep 1 = 1.52e5; Renilla normaliser, rep 1 = 5212
Ir75a (GeneID 39982) [DRSC10188]: E2F firefly, rep 1 = 1.53e5; Renilla normaliser, rep 1 = 8308
CG17777 (GeneID 50374) [DRSC18137]: E2F firefly, rep 1 = 1.30e5; Renilla normaliser, rep 1 = 6095
CG5810 (GeneID 42513) [DRSC15880]: E2F firefly, rep 1 = 1.18e5; Renilla normaliser, rep 1 = 5391
CG31279 (GeneID 318657) [DRSC13158]: E2F firefly, rep 1 = 84154; Renilla normaliser, rep 1 = 2911
CG2247 (GeneID 32111) [DRSC19844]: E2F firefly, rep 1 = 8515; Renilla normaliser, rep 1 = 876
